One sequence from paper PMC11069427 can be followed below.

Construct, isoform or probe ends are uncertain for at least one entry.

The test system of the data set is MdWOX4-1. As to the kind of experiment: EMSA. The note with it: Light Shift Chemiluminescent EMSA Kit (Thermo); pH and temperature not stated. A mutant probe ARF3-Bio-mut; recombinant protein; protein details: GST (pGEX-4T-1); label: biotin. A general note: A gel shift assay detects complexes by their altered migration in electrophoresis.

For the sequence “TAATCATACTCGGTAGCCATTAATCATCCACGC (double strand) [LBD16-2-Bio-MdWOX probe]”, the binding result was “binds”.
